Data published in doi:10.1101/2024.12.18.629111 (bioRxiv, 2024).
These are yes or no findings as the source states them, for the method shown. Some entries that bind do so weakly or less than the wild type. Sequences can lack the tags named with a protein. One block for each binder: values may come before it.

How the values were obtained:
Assay in all cases: pull-down
[1] = target: T1, CBP-Ebs1 (aa 1-591) (S. cerevisiae) (UniProt Q03466)
T1 sequence: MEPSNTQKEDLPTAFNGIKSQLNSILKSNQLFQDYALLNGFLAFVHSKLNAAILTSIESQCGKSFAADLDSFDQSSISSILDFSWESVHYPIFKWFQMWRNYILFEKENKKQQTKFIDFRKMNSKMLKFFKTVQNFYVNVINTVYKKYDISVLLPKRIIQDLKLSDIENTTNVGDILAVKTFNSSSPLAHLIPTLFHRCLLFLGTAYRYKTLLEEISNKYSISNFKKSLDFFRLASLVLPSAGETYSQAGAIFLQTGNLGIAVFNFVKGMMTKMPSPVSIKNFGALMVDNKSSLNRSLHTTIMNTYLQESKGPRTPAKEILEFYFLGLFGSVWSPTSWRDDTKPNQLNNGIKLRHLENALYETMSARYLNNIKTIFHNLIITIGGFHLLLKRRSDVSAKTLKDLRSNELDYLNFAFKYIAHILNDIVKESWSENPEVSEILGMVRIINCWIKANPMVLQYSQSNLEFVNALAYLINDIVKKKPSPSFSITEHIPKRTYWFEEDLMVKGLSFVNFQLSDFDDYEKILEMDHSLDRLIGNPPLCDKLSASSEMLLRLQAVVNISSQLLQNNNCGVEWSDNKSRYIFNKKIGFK

[2] = target: T2, CBP-Upf1-Ct (S. cerevisiae) (UniProt P30771)
T2 sequence: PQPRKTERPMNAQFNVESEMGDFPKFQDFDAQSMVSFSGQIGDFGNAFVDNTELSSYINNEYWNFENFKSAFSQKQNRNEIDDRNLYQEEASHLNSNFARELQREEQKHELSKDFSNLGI

CBP-Upf1-CH-HD = target: T3, CBP-Upf1-CH-HD (S. cerevisiae, UniProt P30771 54-851)
T3 sequence (looked up): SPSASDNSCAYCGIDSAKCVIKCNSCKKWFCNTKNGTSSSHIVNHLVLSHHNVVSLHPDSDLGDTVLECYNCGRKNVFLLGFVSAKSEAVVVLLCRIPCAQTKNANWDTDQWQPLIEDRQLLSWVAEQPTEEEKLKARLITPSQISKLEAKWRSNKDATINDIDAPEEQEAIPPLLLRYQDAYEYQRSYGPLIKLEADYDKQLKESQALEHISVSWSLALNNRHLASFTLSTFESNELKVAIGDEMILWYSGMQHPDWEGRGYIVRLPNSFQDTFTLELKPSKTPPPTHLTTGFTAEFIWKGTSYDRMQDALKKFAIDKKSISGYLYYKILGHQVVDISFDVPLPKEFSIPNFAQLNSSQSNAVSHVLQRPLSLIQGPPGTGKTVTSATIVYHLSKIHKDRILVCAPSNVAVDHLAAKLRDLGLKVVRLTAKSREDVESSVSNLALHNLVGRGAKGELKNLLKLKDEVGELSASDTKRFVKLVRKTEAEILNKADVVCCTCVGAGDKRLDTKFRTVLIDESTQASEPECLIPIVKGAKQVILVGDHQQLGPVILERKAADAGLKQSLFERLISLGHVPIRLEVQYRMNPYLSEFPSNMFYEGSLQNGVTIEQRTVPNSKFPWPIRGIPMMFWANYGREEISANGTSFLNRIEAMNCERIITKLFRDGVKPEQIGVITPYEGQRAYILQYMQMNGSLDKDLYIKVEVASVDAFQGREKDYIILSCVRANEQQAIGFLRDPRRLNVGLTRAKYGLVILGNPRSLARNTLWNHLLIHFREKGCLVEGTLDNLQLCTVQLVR

CBP-Upf1-FL = target: T4, CBP-Upf1-FL (S. cerevisiae, UniProt P30771 1-971)
T4 sequence (looked up): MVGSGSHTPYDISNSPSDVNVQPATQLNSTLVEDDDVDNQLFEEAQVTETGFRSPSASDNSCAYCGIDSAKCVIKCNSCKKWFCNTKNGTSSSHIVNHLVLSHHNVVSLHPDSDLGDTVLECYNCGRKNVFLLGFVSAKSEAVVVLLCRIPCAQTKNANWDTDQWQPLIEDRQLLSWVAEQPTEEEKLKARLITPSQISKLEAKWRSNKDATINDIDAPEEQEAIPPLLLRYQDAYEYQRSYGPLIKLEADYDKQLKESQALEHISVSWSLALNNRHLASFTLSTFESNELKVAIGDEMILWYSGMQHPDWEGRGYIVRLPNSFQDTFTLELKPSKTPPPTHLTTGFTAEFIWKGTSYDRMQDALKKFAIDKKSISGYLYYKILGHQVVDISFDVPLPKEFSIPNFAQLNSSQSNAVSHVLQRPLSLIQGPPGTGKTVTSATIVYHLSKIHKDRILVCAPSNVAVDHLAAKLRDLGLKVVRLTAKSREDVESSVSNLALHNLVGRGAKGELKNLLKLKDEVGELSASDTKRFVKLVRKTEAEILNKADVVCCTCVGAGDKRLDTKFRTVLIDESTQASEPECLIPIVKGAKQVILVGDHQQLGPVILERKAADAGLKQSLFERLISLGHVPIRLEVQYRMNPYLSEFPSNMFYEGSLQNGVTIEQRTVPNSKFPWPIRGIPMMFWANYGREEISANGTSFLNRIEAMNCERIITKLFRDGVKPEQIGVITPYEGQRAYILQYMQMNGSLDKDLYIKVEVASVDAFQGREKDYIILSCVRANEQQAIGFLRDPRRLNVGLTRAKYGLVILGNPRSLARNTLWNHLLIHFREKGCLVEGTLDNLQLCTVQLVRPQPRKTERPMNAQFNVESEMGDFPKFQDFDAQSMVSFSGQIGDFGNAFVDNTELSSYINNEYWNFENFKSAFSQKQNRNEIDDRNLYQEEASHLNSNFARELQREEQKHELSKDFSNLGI

[3] = target: T5, CBP-Nmd4-His (S. cerevisiae) (UniProt Q12129)
T5 sequence: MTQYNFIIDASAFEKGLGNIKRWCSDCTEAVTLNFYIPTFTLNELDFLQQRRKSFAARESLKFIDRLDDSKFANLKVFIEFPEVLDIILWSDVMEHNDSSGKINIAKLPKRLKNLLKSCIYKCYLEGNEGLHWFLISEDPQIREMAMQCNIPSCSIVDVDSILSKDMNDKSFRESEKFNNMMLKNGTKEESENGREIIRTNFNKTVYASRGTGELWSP

[4] = target: T6, GST-Dcp2-UBD (S. cerevisiae) (UniProt P53550)
T6 sequence: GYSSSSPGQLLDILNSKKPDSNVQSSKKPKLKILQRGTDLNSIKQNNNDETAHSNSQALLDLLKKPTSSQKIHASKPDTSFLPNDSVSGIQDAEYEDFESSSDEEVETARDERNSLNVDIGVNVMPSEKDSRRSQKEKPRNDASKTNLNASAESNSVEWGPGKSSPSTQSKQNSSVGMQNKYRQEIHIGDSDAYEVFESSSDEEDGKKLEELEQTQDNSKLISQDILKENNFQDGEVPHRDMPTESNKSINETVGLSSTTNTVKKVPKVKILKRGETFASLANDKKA

B3: Upf2(933-1089)-His (domain or fragment, S. cerevisiae, UniProt P38798 933-1089, looked up)
chain: SDSDLEYGGDLDADRDIEMKRMYEEYERKLKDEEERKAEEELERQFQKMMQESIDARKSEKVVASKIPVISKPVSVQKPLLLKKSEEPSSSKETYEELSKPKKIAFTFLTKSGKKTQSRILQLPTDVKFVSDVLEEEEKLKTERNKIKKIVLKRSFD
binding (CBP-Upf1-CH-HD): binds weakly | binding (CBP-Upf1-FL): binds weakly

B4: GST-Ebs1 (aa 1-591) (domain or fragment, S. cerevisiae, UniProt Q03466 1-591, looked up)
chain: T1 sequence
binding [3]: binds weakly

Further lines, results first:

binding [1]: binds weakly
B1: HisZZ-Nmd4 (protein, UniProt Q12129 1-218)
chain: T5 sequence

binding [2]: no binding
B2: TS-Nmd4-His (natural protein, S. cerevisiae, UniProt Q12129 1-218, looked up)
chain: T5 sequence

binding [4]: no binding
B5: CBP-Ebs1 (aa 1-591) (domain or fragment, UniProt Q03466 1-591)
chain: T1 sequence
